No constants are given. Whether binding was seen depends on the method and setting. Binding seen in cells or lysates may run through a third protein. Some entries that bind do so weakly or less than the wild type.
How the values were obtained:
Experiment in all cases: pull-down; GST-fused ALG-2 proteins on glutathione Sepharose beads, cleared lysates of HEK293 cells; pulldown products analysed by Western blotting with specific antibodies; as described previously [40]; only the target purified
[1] = biological target: GST-fused ALG-2 F122G mutant (human) (UniProt O75340)
[2] = biological target: GST-fused ALG-2, wild type (human) (UniProt O75340)
[3] = biological target: GST-ALG-2^F122S (human) (UniProt O75340)
[4] = biological target: GST-fused ALG-2 F122W mutant (human) (UniProt O75340)
[5] = biological target: GST-fused ALG-2 F122A mutant (human) (UniProt O75340)

Protein sequences, listed by entry. Tags and fused reporters are not part of them. Lines headed by an entry give the natural chain unless they say otherwise; changes in a name come on top.
UniProt O75340: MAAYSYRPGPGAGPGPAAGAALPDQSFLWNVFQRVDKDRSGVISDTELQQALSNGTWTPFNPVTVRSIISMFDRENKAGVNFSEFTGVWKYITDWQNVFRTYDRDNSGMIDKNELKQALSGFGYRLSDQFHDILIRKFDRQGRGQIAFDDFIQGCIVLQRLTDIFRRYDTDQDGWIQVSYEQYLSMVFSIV
UniProt P50995: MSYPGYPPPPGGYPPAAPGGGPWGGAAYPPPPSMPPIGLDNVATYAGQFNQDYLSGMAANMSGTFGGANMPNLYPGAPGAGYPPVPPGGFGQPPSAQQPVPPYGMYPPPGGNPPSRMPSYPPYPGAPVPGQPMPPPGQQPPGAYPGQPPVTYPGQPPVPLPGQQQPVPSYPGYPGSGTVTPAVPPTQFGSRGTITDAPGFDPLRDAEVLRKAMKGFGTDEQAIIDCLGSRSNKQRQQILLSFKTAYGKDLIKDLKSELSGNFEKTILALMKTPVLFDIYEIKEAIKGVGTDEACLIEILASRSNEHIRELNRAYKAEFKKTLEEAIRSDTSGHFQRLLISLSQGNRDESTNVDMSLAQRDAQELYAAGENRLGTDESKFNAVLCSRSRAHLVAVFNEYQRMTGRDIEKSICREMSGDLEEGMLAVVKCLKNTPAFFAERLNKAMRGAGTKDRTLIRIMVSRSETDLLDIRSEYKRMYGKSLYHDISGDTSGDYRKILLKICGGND

Measured: binding

annexin A11, endogenous protein (from UniProt P50995 1-505)
binds: all assays above

— PMC2927601
